# Some of the results follow. Shown are side measurements of this screen, not its main read-out; they come without a call. The list favours compounds with an active or inconclusive main result. Potencies come from curve fits of mixed quality, noted in brackets.
# Test: qHTS Assay for Lipid Storage Modulators in Drosophila S3 Cells;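 on cell number change: cells counted by Cell Tracker Red CMTPX staining in the red channel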
# Conditions: BODIPY lipid droplet fluorescence, 18-24 h; for cell number change: measured here: cell count max response, cells fed with added oleic acid
# In short: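 Drosophila S3 cells got compounds at several concentrations plus oleic acid (400 uM solution). Laser-scanning cytometry with 488 nm excitation read lipid droplets at 500-530 nm and cells at 575-640 nm. Percent activity was relative to 20 uM Triacsin C.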
# [1] = measured here: lipid fluorescence (Fed channel) AC50, cells fed with added oleic acid
# [2] = measured here: cell number channel AC50, cells fed with added oleic acid
structure (smiles),measurement,setting,value
Cc1ccc2cc(CCNC(=O)Cc3cccs3)c(=O)[nH]c2c1,cell number change,,-1.97%
same,AC50,[1],"1.46 µM [rising, partial curve]"
COc1ccc(N(CC(=O)NCC2CCCO2)S(=O)(=O)c2ccc(C)cc2)cc1OC (centres undefined),cell number change,,-0.724%
same,AC50,[1],"6.51 µM [falling, partial curve, poor fit]"
COc1ccc(OC)c(/C=N/NC(=O)CCc2c(C)n[nH]c2C)c1,cell number change,,17.4%
same,AC50,[1],"3.66 µM [rising, partial curve, poor fit]"
Cc1sc2nc(CSc3ccccc3)nc(N3CCN(C)CC3)c2c1C,cell number change,,-1.06%
CCC(=O)N1CCc2cc(S(=O)(=O)CCC(=O)Nc3cccc(F)c3)ccc21,AC50,[1],"0.58 µM [falling, single point]"
Cc1cccc(C(=O)NCCCn2ccnc2)c1C,AC50,[2],"6.51 µM [falling, single point]"
COc1cccc(C(=O)N2CCN(C(=O)c3cccc4ccccc34)CC2)c1OC,cell number change,,-9.23%
COc1cc(Cl)cc(C=O)c1OCC(=O)O,cell number change,,-0.366%
same,AC50,[1],"6.51 µM [falling, single point]"
COC(=O)c1ccccc1NC(=O)c1ccc(F)cc1,cell number change,,1.22%
same,AC50,[1],"6.51 µM [rising, single point]"
O=C(NCC(=O)N(Cc1ccco1)C(C(=O)NC1CCCC1)c1cccnc1)c1cccs1 (centres undefined),cell number change,,13.3%
same,AC50,[2],"0.00411 µM [rising, full curve, poor fit]"
CCCCCc1ccc(OCCCC[n+]2ccccc2)c(CCCCC)c1,cell number change,,-78.8%
same,AC50,[2],"16.4 µM [falling, partial curve]"
same,AC50,[1],"20.6 µM [falling, single point]"
COc1ccc(NC(=O)COC(=O)Cn2cnc3ccccc3c2=O)cc1OC,cell number change,,2.23%
same,AC50,[1],"0.13 µM [falling, full curve, poor fit]"
COC(=O)C(CCSC)NC(=O)C12CC3CC(CC(C3)C1)C2 (centres undefined),cell number change,,-41.2%
same,AC50,[2],"8.2 µM [falling, partial curve]"
same,AC50,[1],"1.46 µM [falling, partial curve]"
O=c1sc2ccccc2n1COc1ccccc1,cell number change,,0.128%
same,AC50,[1],"29.1 µM [rising, single point]"
O=C(COC(=O)CNC(=O)c1ccccc1)Nc1ccc2c(c1)OCO2,cell number change,,5.41%
same,AC50,[1],"0.116 µM [rising, full curve, poor fit]"
CC(=O)NS(=O)(=O)c1ccc(NC(=O)CN2C(=O)C3C4C=CC(C4)C3C2=O)cc1 (centres undefined),cell number change,,-66.7%
same,AC50,[2],"0.58 µM [falling, full curve]"
Cc1ccc(C(=O)NCC(=O)OCC(=O)Nc2cc(C)c(C)cc2[N+](=O)[O-])cc1,cell number change,,33.4%
same,AC50,[2],"29.1 µM [rising, single point]"
same,AC50,[1],"29.1 µM [rising, partial curve]"
CCOc1ccc(C(=O)N2CCN(c3cccc(C)c3C)CC2)cc1,cell number change,,47.4%
same,AC50,[2],"20.6 µM [rising, single point]"
Cc1cccc(NC(=O)COc2ccccc2C)n1,cell number change,,14.9%
same,AC50,[1],"0.58 µM [rising, single point]"
COc1ccc(CCN2CC(C(=O)N(C)CC(=O)Nc3cccc(F)c3)CC2=O)cc1OC (centres undefined),cell number change,,23.7%
same,AC50,[1],"29.1 µM [rising, single point]"
O=C1OCCC1Sc1nc2cc(Cl)ccc2s1 (centres undefined),cell number change,,13%
same,AC50,[1],"0.651 µM [falling, full curve, poor fit]"
O=C(Cc1ccccc1)N1CCC(c2nc3ccccc3[nH]2)CC1,cell number change,,17.2%
same,AC50,[1],"0.146 µM [falling, full curve, poor fit]"
COC(=O)CSc1nc2c(cnn2-c2ccc(Cl)cc2)c(=O)[nH]1,cell number change,,31%
COC(=O)C1=C(NC(=O)c2cccc(OC)c2)CCS1,cell number change,,26.3%
Cc1ccc(NC(=O)CSc2nnc(NC(=O)c3ccc(S(=O)(=O)N4CCOCC4)cc3)s2)cc1,cell number change,,-17.2%
same,AC50,[2],"3.26 µM [falling, partial curve]"
COc1ccc(NC(=O)COC(=O)[C@@H]2CCCN2C(=O)c2cccs2)cc1,AC50,[1],"23.1 µM [falling, partial curve]"
Cc1nn(-c2ccccc2)c(Cl)c1C(=O)NNC(=O)c1ccccc1O,cell number change,,-11.5%
same,AC50,[1],"18.4 µM [falling, partial curve, poor fit]"
COc1ccc(C(=O)Nc2cc3c(cc2C(=O)O)OCCCO3)c(OC)c1,cell number change,,-1.3%
NC(=O)C1CCN(C(=O)c2cc3ccccn3n2)CC1,cell number change,,-41.5%
same,AC50,[2],"29.1 µM [falling, single point]"
same,AC50,[1],"0.0058 µM [falling, full curve, poor fit]"
Clc1ccc(Oc2nc(Oc3ccc(Cl)cc3)nc(N3CCOCC3)n2)cc1,cell number change,,-28.8%
same,AC50,[1],"6.51 µM [falling, partial curve]"
CCOC(=O)c1[nH]c(C)c(C(=O)Nc2ccc(C)cc2C)c1C,cell number change,,-30.3%
same,AC50,[2],"18.4 µM [falling, single point]"
C=CCn1c(SC(C)C(=O)Nc2ccc(Cl)cn2)nnc1C1CC1 (centres undefined),cell number change,,-21.3%
CC(C)C(=O)Nc1ccc2c(c1)Cc1cc(NC(=O)C(C)C)ccc1-2,cell number change,,29.3%
same,AC50,[1],"0.00461 µM [rising, full curve, poor fit]"
CC1Cc2ccccc2N1CC(=O)Nc1ccc2c(c1)OCO2 (centres undefined),AC50,[2],"1.64 µM [rising, partial curve]"
same,AC50,[1],"2.06 µM [rising, partial curve]"
COc1ccc(Oc2coc3cc(O)ccc3c2=O)cc1,cell number change,,-25.4%
O=C(c1ccccc1)N1CCN(c2n[nH]c(=O)[nH]c2=O)CC1,cell number change,,-52.5%
same,AC50,[2],"0.411 µM [falling, full curve]"
Cc1ccc(S(=O)(=O)N(CC(=O)Nc2cccnc2)c2ccc(Br)cc2)cc1,cell number change,,-21.1%
same,AC50,[1],"3.66 µM [falling, single point]"
CCOC(=O)c1cc(S(=O)(=O)N2CC(C)CC(C)C2)cn1C (centres undefined),cell number change,,64%
same,AC50,[2],"29.1 µM [rising, single point]"
O=C(COc1ccc(Cl)cc1Cl)NNC(=S)NCc1ccco1,cell number change,,-33.7%
same,AC50,[2],"32.6 µM [falling, partial curve, poor fit]"
same,AC50,[1],"0.731 µM [falling, full curve, poor fit]"
CC1CCCC(NC(=O)c2ccc(CNc3c(N4CCCC4)c(=O)c3=O)cc2)C1C (centres undefined),AC50,[1],"6.51 µM [falling, single point]"
COc1ccc(/C=C/C(=O)OCC(=O)Nc2ccc(N3CCOCC3)cc2)cc1,cell number change,,31.6%
same,AC50,[1],"29.1 µM [rising, single point]"
Clc1ccc(OCCCN2CCc3ccccc3C2)c(Br)c1,cell number change,,-40.7%
same,AC50,[2],"13 µM [falling, single point]"
same,AC50,[1],"29.1 µM [falling, single point]"
COc1ccccc1N1C(=O)c2ccc(C(=O)Nc3nccs3)cc2C1=O,cell number change,,58.9%
same,AC50,[2],"8.2 µM [rising, partial curve, poor fit]"
same,AC50,[1],"29.1 µM [rising, partial curve, poor fit]"
O=S(=O)(Nc1cccc(-n2cnnn2)c1)c1ccccc1F,cell number change,,-18.9%
COc1ccc2[nH]c(=O)c(CN(CCc3cccc(C)c3)C(C)=O)cc2c1,cell number change,,-12.1%
same,AC50,[1],"1.84 µM [falling, partial curve]"
COc1ccc(/C=C(\NC(=O)c2ccc(OCC(C)C)cc2)C(=O)OCc2ccco2)cc1,cell number change,,-1.32%
same,AC50,[1],"4.61 µM [falling, partial curve, poor fit]"
NC(=O)c1ccc(NC(=O)Cc2ccc(S(=O)(=O)N3CCCCC3)cc2)cc1,cell number change,,6.52%
same,AC50,[1],"10.3 µM [rising, partial curve]"
O=c1cc2c(=O)oc3cc(O)c(O)oc3c2c(O)c1O,cell number change,,-21.9%
same,AC50,[1],"4.11 µM [rising, single point]"
CC1CN(S(=O)(=O)c2ccccc2)CC(C)O1 (centres undefined),cell number change,,-5.03%
same,AC50,[1],"2.06 µM [falling, full curve]"
CC(=O)c1cc(-c2ccccc2)n(CC(=O)N2CCCC2)c1C,cell number change,,-23.1%
same,AC50,[1],"32.6 µM [falling, partial curve, poor fit]"
Cc1ccc(CNC(=O)[C@H](C)NC(=O)C2CCN(C(=O)[C@@H]3CCCN3C(=O)OC(C)(C)C)CC2)cc1,cell number change,,1.27%
same,AC50,[1],"29.1 µM [falling, single point]"
COc1ccc(-n2nc(C(=O)NCC(=O)NCC3COc4ccccc4O3)c3ccccc3c2=O)cc1OC (centres undefined),AC50,[1],"0.13 µM [falling, full curve, poor fit]"
CCCCC(C(=O)NC(C)(C)C)N(Cc1ccco1)C(=O)c1snc(C(N)=O)c1N (centres undefined),cell number change,,20.4%
same,AC50,[2],"1.64 µM [rising, full curve, poor fit]"
CSc1ccc(S(=O)(=O)NCC(=O)OCC(=O)NCCc2ccccc2)cc1[N+](=O)[O-],cell number change,,-30.8%
same,AC50,[2],"29.1 µM [falling, single point]"
same,AC50,[1],"3.66 µM [falling, full curve]"
CCCCC(=O)Nc1ncc(Br)s1,cell number change,,3.51%
Cc1ccc(C(=O)OCC(=O)Nc2ccc(F)c(Cl)c2)o1,cell number change,,-18.6%
CC1CN(C(=O)c2ccn(C)n2)CC(C)O1 (centres undefined),AC50,[1],"0.731 µM [falling, full curve, poor fit]"
O=C(O)Cc1ccc(NC(=O)c2cccs2)cc1,cell number change,,-39.1%
same,AC50,[2],"0.231 µM [falling, full curve, poor fit]"
same,AC50,[1],"0.231 µM [falling, full curve]"
COc1cc(OC)cc(C(=O)Nc2ccccc2-c2nnn(CC(N)=O)n2)c1,cell number change,,39.7%
same,AC50,[2],"29.1 µM [rising, single point]"
same,AC50,[1],"23.1 µM [rising, single point]"
CN(CC(=O)Nc1ccccc1)CC(=O)Nc1ccc(F)cc1,cell number change,,30.5%
same,AC50,[2],"13 µM [rising, single point]"

# A second format for some results above:
structure (smiles)	measurement	setting	value
CC1CN(S(=O)(=O)c2ccccc2)CC(C)O1 (centres undefined)	AC50	[1]	2.06 µM [falling, full curve]
CC(=O)c1cc(-c2ccccc2)n(CC(=O)N2CCCC2)c1C	cell number change		-23.1%
same	AC50	[1]	32.6 µM [falling, partial curve, poor fit]
Cc1ccc(CNC(=O)[C@H](C)NC(=O)C2CCN(C(=O)[C@@H]3CCCN3C(=O)OC(C)(C)C)CC2)cc1	cell number change		1.27%
same	AC50	[1]	29.1 µM [falling, single point]

# Exported as tab-separated lines: part of the list above
structure (smiles)	measurement	setting	value
COc1ccc(OC)c(/C=N/NC(=O)CCc2c(C)n[nH]c2C)c1	cell number change		17.4%
CCCCC(=O)Nc1ncc(Br)s1	cell number change		3.51%
